Reference: publication PMC12670160, “A drug-repurposing screen of FDA- and EMA-approved drugs identifies two NF-κB inhibitors active against eumycetoma” (Journal of Antimicrobial Chemotherapy, 2025)
Structures can show the parent of a compound that is named as a salt. Hit rate of the full screen: of about 5,300 compounds, about 130 (2.5%) showed an effect of 50% or more. This is one part of the list.

Test system: M. mycetomatis strain mm55
Details: primary screen, metabolic activity vs growth control; 96 h, 2 µM; inhibitor

Compound	% viability [%]
CCCCCCCC/C=C/C(=O)O [ONC0003676, trans2undecenoic acid]	70.7
COc1ccc(Cc2nccc3cc(OC)c(OC)cc23)cc1OC [ONC0000540, papaverine hydrochloride]	80.31
CCCOc1ccc2[nH]cc(C3=CCNCC3)c2n1 [ONC0001634, cp94253]	74.19
c1ccc(C2CN3CCSC3=N2)cc1 (stereo not shown) [ONC0004107, tetramizole hydrochloride]	107.6
Cc1ccccc1NC(=O)Nc1ccc(CC(=O)N(C)[C@@H](CC(C)C)C(=O)NCC[C@H](NC(=O)[C@@H]2CCCN2S(=O)(=O)c2cc(Cl)cc(Cl)c2)C(=O)O)cc1 [ONC0000052, bio5192]	94.23
O=c1c2c(c1=O)N(CCP(=O)(O)O)CCCN2 [ONC0005537, perzinfotel]	115.9
O=C(Nc1cccc2c(=O)cc(-c3nnn[nH]3)oc12)c1ccc(OCCCCc2ccccc2)cc1 [ONC0001915, pranlukast]	50.95
C=C(c1ccccc1OCc1cccc(Cl)c1)n1ccnc1 [Cloconazole HCl]	3.259
c1ccc2c(c1)CCC[C@H]2Nc1nc2ccccc2[nH]1 [ONC0001745, ns8593]	74
CC(C)(C)NC[C@H](O)COc1nsnc1N1CCOCC1 [ONC0001295, timolol]	65.77
COc1ccc(NC(=O)c2ccc(-c3ccc(-c4noc(C)n4)cc3C)cc2)cc1OCCN(C)C [ONC0000072, sb216641]	86.64
COc1cc(C[C@H](C)[C@H](C)Cc2ccc3c(c2)OCO3)ccc1O [ONC0001722, macelignan]	76.98
NCCCC[C@H](N[C@@H](CCc1ccccc1)C(=O)O)C(=O)N1CCC[C@H]1C(=O)O [ONC0000583, lisinopril]	115.2
CCCCOCCOc1nc(-c2ccc(C(=O)O)c(F)c2)sc1C [ONC0002483, ac261066]	109.3
FC(F)(F)c1ccccc1-n1ccnc1 [ONC0000025, trim]	101
O=C(c1cccc(Cl)c1F)N1CCN(Cc2cccc(Nc3nccs3)n2)CC1 [ONC0005153, mk8745]	124.5
COc1cc(OC)c2c(=O)[nH]c(-c3cc(C)c(OCCO)c(C)c3)nc2c1 [ONC0005158, rvx208rvx000222]	101.3
Cc1cc(OCCN2CCOCC2)nn1-c1ccc2ccccc2c1 [ONC0001075, s1ra hydrochloride]	79.6
COc1cccc(NC(=O)/C=C/c2ccc(Cl)cc2)c1 [ONC0002692, sb366791]	74.75

Random excerpt: three compounds from above
Compound	% viability [%]
CCCCOCCOc1nc(-c2ccc(C(=O)O)c(F)c2)sc1C [ONC0002483, ac261066]	109.3
c1ccc2c(c1)CCC[C@H]2Nc1nc2ccccc2[nH]1 [ONC0001745, ns8593]	74
COc1cc(OC)c2c(=O)[nH]c(-c3cc(C)c(OCCO)c(C)c3)nc2c1 [ONC0005158, rvx208rvx000222]	101.3

More structures follow.

Compound	% viability [%]
O=C1CSC(c2ccccc2Cl)c2cc(Cl)ccc2N1 (stereo not shown) [ONC0000124, cgp37157]	99.94
C[C@@]12CCc3occc3[C@H]1CC[C@@]13C[C@@H](CC[C@H]12)[C@@](O)(CO)C3 [ONC0003460, cafestol]	77.57
O=C(O)Cc1ccc(OCc2ccccc2)c(Cl)c1 [ONC0002166, benzofenac]	78.33
Cc1ccccc1N(C)C(=O)c1ccc([S+]([O-])c2nccs2)c([N+](=O)[O-])c1 (stereo not shown) [ONC0002619, sb268262]	108.4
CCOC(=O)OC(C)OC(=O)[C@@H]1N2C(=O)[C@@H](NC(=O)[C@H](N)c3ccccc3)[C@H]2SC1(C)C (stereo partly shown) [ONC0003112, bacampicillin hydrochloride]	79.97
O=Cc1ccc(CO)o1 [ONC0002787, 5hydroxymethylfuran2carbaldehyde]	74.71
CCN[C@@H]1C[C@H](C)S(=O)(=O)c2sc(S(N)(=O)=O)cc21 [ONC0004566, dorzolamide hcl]	57.78
CCNC(=O)N1CCN(CCCC(c2ccc(F)cc2)c2ccc(F)cc2)CC1 [ONC0003498, amperozidehcl]	32.95
C[C@@H](N[C@H]1CCCC[C@@H]1NC(=O)c1ccc(Cl)cc1)c1cccc2ccccc12 [ONC0003067, calhex231]	73.79
O=C(N/N=C/c1ccc([N+](=O)[O-])o1)c1cc([N+](=O)[O-])cc([N+](=O)[O-])c1O [ONC0004091, nifursol]	114
C[C@]12CC[C@H]3[C@@H](CC[C@@]45O[C@@H]4C(O)=C(C#N)C[C@]35C)[C@@H]1CC[C@@H]2O [ONC0004250, trilostane]	70.27
Cc1nc(NC(=O)N2CCC[C@H]2C(N)=O)sc1-c1csc(C(C)(C)C)n1 [ONC0000145, a66]	101.1
Nn1cnc2cc3ccccc3cc2c1=O [ONC0002560, centazolone]	70.03
COC1=C(OC)C(=O)C(CCCCCCCCCCO)=C(C)C1=O [ONC0004071, idebenone]	145.4
CCOC(=O)[C@H](CCc1ccccc1)N[C@H]1CCc2ccccc2N(CC(=O)O)C1=O [ONC0004295, benazepril hydrochloride]	87.99
COc1cccc(-n2nc(C(=O)O)cc2-c2ccc(C3CCCCC3)c(Cl)c2)c1 [ONC0000173, tclpa54]	91.44
CC1(C)[C@@H]2C[C@@H](O)[C@@](C)(O)[C@H]1C2 [ONC0002949, 266trimethylbicyclo311heptane23diol]	64.26
C/C=C/C1=C(C(=O)O)N2C(=O)[C@@H](NC(=O)[C@H](N)c3ccc(O)cc3)[C@H]2SC1 [ONC0004213, cefprozil]	75.17
Cn1cc(-c2ccc(F)c(C(F)(F)F)c2)nc1C1CCN(c2ncnc3[nH]ncc23)CC1 [ONC0005261, ly2584702 tosylate]	149.4
COC(=O)c1cnn(-c2ccc(F)cc2F)c1/C=N/NC(=S)NC(C)(C)C [ONC0001614, cid2745687]	66.77
